Several values for one entry are separate records, joined by “and”; a condition that tells them apart may be missing. Identical values can stand only once. In all, about 300,000 compounds went through this assay and about 5,400 (1.8%) were called active. Inconclusive means that the source gave no clear call. Such entries were picked first, then a sample of the others. Calls come from the whole dose curve; tested in HEK293 cells. Potencies beside an inconclusive call are fits to weak or partial responses and may not hold up.
Assay: qHTS for inhibitors of binding or entry into cells for Marburg Virus
Settings: Marburg virus pseudotyped entry inhibition, cell reporter; activity change, negative = inhibition: at 37.8 µM (top of the series) unless noted
For `O=C(Nc1ccncc1)c1cc(S(=O)(=O)N2CCCCC2)ccc1Cl`, the Potency was inconclusive: 22.4 µM [inhibitor, single point]. In the case of `Cn1ccc(C(=O)N/N=C/c2ccncc2)n1`, the “activity change, negative = inhibition” value is reported as inactive: -20.9% [at 46.1 µM]. In the case of `CCCc1cc(C(=O)Nc2c(C)nn(Cc3c(Cl)cccc3Cl)c2C)no1`, the Potency is reported as inconclusive: 2.82 µM [inhibitor, full curve, poor fit]. With `COc1cc(Cl)ccc1NC(=O)COc1ccccc1C(=O)N1CCN(c2ccc(O)cc2)CC1` the Potency was inconclusive: 35.5 µM [inhibitor, single point]. For `O=C1NC(=O)C2(Cc3ccccc3N3CCCC32)C(=O)N1c1cccc(Cl)c1` (centres undefined), the “activity change, negative = inhibition” value was inactive: -0.566%. With `CC(=O)NC(c1ccccc1)c1cc(Cl)c2cccnc2c1O` (centres undefined) the Potency was active: 12.6 µM. In the case of `COc1ccccc1C(C[N+](=O)[O-])c1c[nH]c2ccccc12` (centres undefined), the Potency is reported as inconclusive: 0.708 µM [inhibitor, full curve, poor fit]. With `Nn1c(COc2ccccc2F)nnc1SCC(=O)NC1CCS(=O)(=O)C1` (centres undefined) the “activity change, negative = inhibition” value was inactive: 19.5%. In the case of `CCOc1cc(/C=N/NC(=O)Cn2nc([N+](=O)[O-])cc2C)ccc1OCc1ccc(F)cc1`, the Potency is reported as inconclusive: 11.2 µM [inhibitor, partial curve, poor fit]. With `CCc1nc(-n2[nH]c(=O)c3ccccc3c2=O)c2c3c(sc2n1)CCCC3` the “activity change, negative = inhibition” value was inactive: 0.963%. In the case of `O=C(Nc1ccccc1Cl)O/N=C(/c1ccccc1)c1ccccn1`, the Potency is reported as inconclusive: 5.62 µM [activator, single point]. With `Cc1cccc(C(=O)NCCN2CCN(c3ccccc3)CC2)c1` the Potency was inconclusive: 25.1 µM [inhibitor, single point]. With `CC(C)Cn1c(=O)c2ccccc2n2c(CCC(=O)NC(C)c3ccccc3)nnc12` (centres undefined) the “activity change, negative = inhibition” value was inactive: -8.1% [at 46.1 µM]. In the case of `CCOc1ccc2nc(N(CCN(C)C)C(=O)c3ccc4c(c3)CCCC4)sc2c1`, the Potency is reported as inconclusive: 35.5 µM [inhibitor, single point]. With `CCCN(CC(=O)Nc1ccccc1C)C(=O)C1CCN(c2ncnc3sc(C)c(C)c23)CC1` the Potency was inconclusive: 10 µM [inhibitor, partial curve, poor fit]. In the case of `N#C/C(=N\Nc1cccc2ccccc12)c1nnc2n1CCCCC2`, the “activity change, negative = inhibition” value is reported as inactive: 7.66%. For `COc1ccc(COCC(O)CN2CCN(S(=O)(=O)c3c(F)cccc3F)CC2)cc1OC` (centres undefined), the “activity change, negative = inhibition” value was inactive: -16.5%. For `COc1ccccc1CO/N=C/NC(=O)c1c(OC)ccnc1Oc1ccc(F)cc1`, the “activity change, negative = inhibition” value was inactive: -24.4%. For `O=C(Cc1c(F)cccc1Cl)N/N=C/c1cccs1`, the “activity change, negative = inhibition” value was inactive: 19.4% [at 46.1 µM]. In the case of `CC(=O)c1ccc(OCCNS(=O)(=O)c2ccc(-n3cnnn3)cc2)cc1`, the “activity change, negative = inhibition” value is reported as inactive: -16.1% [at 46.1 µM]. For `O=C(NCCc1nc2ccccc2n1Cc1ccc(Cl)cc1Cl)c1ccco1`, the Potency was inconclusive: 3.55 µM [inhibitor, full curve, poor fit]. In the case of `Cc1ccc(-c2noc(-c3ccccc3NC(=O)C3CC(=O)N(c4ccccc4C)C3)n2)cc1` (centres undefined), the “activity change, negative = inhibition” value is reported as inactive: -11% [at 46.1 µM]. With `COc1ccc(Br)cc1CN(C)C(=O)c1ccc2c(c1)NC(=O)C(C)S2` (centres undefined) the “activity change, negative = inhibition” value was inactive: 27.1% [at 46.1 µM]. With `CCOC(=O)c1c(NC(=O)c2ccc(Br)o2)sc(C)c1CC` the Potency was inconclusive: 22.4 µM [inhibitor, partial curve, poor fit]. In the case of `CCc1ccc(CN2CCCC(CNC(=O)c3cccc(OC)c3OC)C2)cc1` (centres undefined), the Potency is reported as inconclusive: 2.51 µM [inhibitor, partial curve, poor fit]. With `CC(C)Sc1ncc(Cl)c(C(=O)N(Cc2ccc(N(C)C)cc2)C2CCS(=O)(=O)C2)n1` (centres undefined) the Potency was inconclusive: 14.1 µM [inhibitor, partial curve, poor fit]. In the case of `CCN1CCN(c2oc(-c3ccccc3)nc2S(=O)(=O)c2ccc(C)cc2)CC1`, the Potency is reported as inconclusive: 12.6 µM [inhibitor, single point]. With `O=C(COc1ccccc1)Nc1nnc(-c2ccc(F)cc2)o1` the “activity change, negative = inhibition” value was inactive: -0.0545% [at 46.1 µM]. With `Cc1ccc(S(=O)(=O)CCC(=O)Nc2nnc(-c3ccco3)o2)cc1` the Potency was inconclusive: 0.316 µM [inhibitor, full curve]. With `Cc1ccccc1NC(=O)c1nn(-c2ccc(F)c(F)c2)ccc1=O` the Potency was inconclusive: 35.5 µM [activator, single point]. In the case of `Cc1ccc(SCC2(O)CCN(C(=O)c3ccc(Cl)cc3)CC2)cc1`, the “activity change, negative = inhibition” value is reported as inactive: -13%. For `Cc1cccc(CN2CCN(C3CN(C4CCCC4)S(=O)(=O)C3)CC2)c1` (centres undefined), the Potency was inconclusive: 0.0445 µM [activator, full curve, poor fit]. In the case of `O=C(Nc1ccc2cn[nH]c2c1)c1ccc(Cl)c(S(=O)(=O)N2CCOCC2)c1`, the Potency is reported as inconclusive: 35.5 µM [activator, single point]. With `CC(C)OC(=O)CN1CCN(S(=O)(=O)c2cc(Cl)ccc2Cl)CC1` the Potency was inconclusive: 1 µM [inhibitor, partial curve, poor fit]. With `S=C(NCc1ccco1)NCC(c1ccco1)N1CCCCC1` (centres undefined) the Potency was inconclusive: 12.6 µM [inhibitor, single point]. In the case of `CCOC(=O)C1=NNC(=O)C1`, the Potency is reported as inconclusive: 1.26 µM [inhibitor, single point]. With `COc1ccc(C(=O)Nc2ccccc2C(=O)N/N=C/c2ccncc2)cc1OC` the Potency was inconclusive: 3.55 µM [inhibitor, full curve, poor fit]. With `Cc1cccc(NC(=O)CN2C(=S)NC(C)(C)CC2C)c1C` (centres undefined) the “activity change, negative = inhibition” value was inactive: 7.02%. With `O=C(Nc1ccc(OC(F)(F)F)cc1)C1CCN(S(=O)(=O)c2cccs2)CC1` the “activity change, negative = inhibition” value was inactive: -13.9% [at 46.1 µM]. In the case of `C/C(=N/NC(=O)CSc1nc2ccccc2s1)c1ccncc1`, the Potency is reported as inconclusive: 5.01 µM [inhibitor, partial curve, poor fit]. With `CCOc1ccc(N(C(C)C(=O)Nc2cc(Cl)ccc2OC)S(C)(=O)=O)cc1` (centres undefined) the Potency was inconclusive: 1 µM [inhibitor, full curve, poor fit]. In the case of `COc1cccc(/C(C)=N/Nc2ncc(Cl)cc2Cl)c1`, the “activity change, negative = inhibition” value is reported as inactive: 2.55%. In the case of `COc1cccc(CSc2nnc(-c3ccncc3)n2C)c1`, the “activity change, negative = inhibition” value is reported as inactive: 14.9% [at 46.1 µM]. With `CCN(CC)C(=O)c1ccc(Nc2nnc(C)c3ccccc23)cc1` the “activity change, negative = inhibition” value was inactive: -14.4%. For `Cc1ccc(Nc2nc(N)c([N+](=O)[O-])c(NCc3ccccc3)n2)cc1`, the Potency was inconclusive: 17.8 µM [inhibitor, partial curve, poor fit]. For `Nc1cc(Cl)nnc1Cl`, the Potency was inconclusive: 3.16 µM [activator, single point]. In the case of `Cc1ccc(NC(=S)NC2CC3CCC(C2)N3Cc2ccco2)cc1C` (centres undefined), the Potency is reported as inconclusive: 1.64 µM [inhibitor, full curve, poor fit]. With `Cc1cc(C(=O)COC(=O)c2ccc(F)cc2)c(C)n1C` the Potency was inconclusive: 17.8 µM [inhibitor, single point]. For `COc1ccc(CNC(=O)C2CCN(S(=O)(=O)N3CCC4(CC3)OCCO4)CC2)c(OC)c1`, the Potency was “inactive and inconclusive: 29.1 µM [activator, partial curve, poor fit]”. In the case of `Cc1ccc(NC(=S)NC(=O)c2ccc(-c3ccc(Cl)cc3)o2)c(O)c1`, the Potency is reported as inconclusive: 0.282 µM [activator, full curve, poor fit]. With `CNc1nc(-c2ccccc2)nc(-c2ccccc2)c1C#N` the “activity change, negative = inhibition” value was inactive: -9.98%. With `Cn1ncc2c(N3CCC(Cc4ccccc4)CC3)ncnc21` the “activity change, negative = inhibition” value was inactive: 1.23% [at 46.1 µM]. In the case of `COc1cc(NS(=O)(=O)c2ccc(OC)c(C)c2C)c(OC)cc1Cl`, the Potency is reported as inconclusive: 4.47 µM [inhibitor, partial curve]. In the case of `COc1cccc(C2=NOC(C(=O)Nc3cccc(C(C)=O)c3)C2)c1OC` (centres undefined), the Potency is reported as inconclusive: 4.11 µM [inhibitor, single point]. For `Cc1ccc(-n2c(=O)c3c(cnn3C)n(Cc3ccccc3F)c2=O)cc1`, the Potency was inconclusive: 10 µM [activator, partial curve, poor fit]. With `CC1C(=O)N(Cc2cn(CCC3OCCO3)nn2)CCS(=O)(=O)N1Cc1ccc(-c2ccccc2)cc1` (centres undefined) the Potency was inconclusive: 0.004 µM [activator, full curve, poor fit]. For `COC(=O)C(Cc1ccc(O)cc1)N1Cc2ccccc2C1=O` (centres undefined), the Potency was inconclusive: 11.2 µM [activator, partial curve, poor fit]. For `Cc1ccc(NC(=O)N2CCC(C(N)=O)CC2)cc1`, the Potency was inconclusive: 29.1 µM [activator, single point]. In the case of `CN1CCN(c2ccc(S(=O)(=O)N3CCCCC3)cc2NC(=O)COc2cccc(Cl)c2)CC1`, the Potency is reported as inconclusive: 35.5 µM [inhibitor, single point]. With `Cn1c(=N)n(CC(O)c2cccc3ccccc23)c2ccccc21` (centres undefined) the Potency was inconclusive: 15.8 µM [inhibitor, single point]. With `COC(=O)C/C(C)=N/Nc1ccc(S(=O)(=O)N2CCCC2)cc1[N+](=O)[O-]` the “activity change, negative = inhibition” value was inactive: -1.78%. In the case of `COCCNC(=O)C(c1ccc(C)cc1)N(CCOC)C(=O)CCC(=O)Nc1ccccn1` (centres undefined), the Potency is reported as inconclusive: 35.5 µM [inhibitor, single point]. With `CC(C)CCN1NC2(CCCC(C)C2)NC1=S` (centres undefined) the “activity change, negative = inhibition” value was inactive: -2.57% [at 14.2 µM]. For `CCOC(=O)c1nn(-c2ccc(C)c(C)c2)cc1O`, the “activity change, negative = inhibition” value was inactive: -2.23%. For `OCCC1CN(Cc2cnc(-c3ccccc3)s2)CCN1Cc1ccccc1` (centres undefined), the Potency was inconclusive: 4.47 µM [inhibitor, full curve, poor fit]. With `CC1CCN(CC(=O)N2c3ccccc3CCc3ccccc32)CC1` the Potency was inconclusive: 29.1 µM [inhibitor, single point]. With `Cc1ccc(C)c(NC(=O)CN(C)C(=O)COc2cccc3c2OC(C)(C)C3)c1` the Potency was inconclusive: 1.78 µM [inhibitor, single point]. With `N#Cc1c(NC(=O)CSc2ncnc3sccc23)oc(-c2ccco2)c1-c1ccco1` the Potency was “inactive”. With `Cc1ccc(-c2nnn(CC(=O)N(CC(=O)NC3CCCC3)c3ccc(F)c(Cl)c3)n2)o1` the Potency was inconclusive: 15.8 µM [inhibitor, partial curve, poor fit].
% is set by controls: 0 for no effect and ±100 for the full control effect; potency is the fitted concentration of half-maximal effect.
